According to paper PMC9481933:
Substitutions are numbered along the chain they refer to. No constants are given. Whether binding was seen depends on the method and setting. Binding seen in cells or lysates may run through a third protein. Some entries that bind do so weakly or less than the wild type. Sequences can lack the tags named with a protein.

The chains behind the UniProt entries cited, without tags or fusion partners.
UniProt P08238: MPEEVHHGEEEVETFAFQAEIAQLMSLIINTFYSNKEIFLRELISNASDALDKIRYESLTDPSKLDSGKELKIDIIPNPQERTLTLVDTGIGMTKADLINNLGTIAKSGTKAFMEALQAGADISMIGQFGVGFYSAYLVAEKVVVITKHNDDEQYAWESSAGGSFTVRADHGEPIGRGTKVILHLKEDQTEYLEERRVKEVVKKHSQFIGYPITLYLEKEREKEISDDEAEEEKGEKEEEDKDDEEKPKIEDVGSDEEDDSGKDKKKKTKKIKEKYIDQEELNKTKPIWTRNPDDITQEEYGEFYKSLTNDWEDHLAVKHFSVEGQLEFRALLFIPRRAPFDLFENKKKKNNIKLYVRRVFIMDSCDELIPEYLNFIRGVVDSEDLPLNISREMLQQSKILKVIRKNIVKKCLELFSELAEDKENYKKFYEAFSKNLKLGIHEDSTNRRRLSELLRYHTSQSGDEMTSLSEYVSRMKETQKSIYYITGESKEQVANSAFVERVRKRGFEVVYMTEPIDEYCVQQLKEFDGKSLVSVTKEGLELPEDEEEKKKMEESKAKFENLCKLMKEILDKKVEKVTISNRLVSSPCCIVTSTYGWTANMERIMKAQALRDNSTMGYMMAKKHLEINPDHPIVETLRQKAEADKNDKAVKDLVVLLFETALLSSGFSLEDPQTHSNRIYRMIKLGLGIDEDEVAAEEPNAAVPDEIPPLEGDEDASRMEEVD
UniProt P63208: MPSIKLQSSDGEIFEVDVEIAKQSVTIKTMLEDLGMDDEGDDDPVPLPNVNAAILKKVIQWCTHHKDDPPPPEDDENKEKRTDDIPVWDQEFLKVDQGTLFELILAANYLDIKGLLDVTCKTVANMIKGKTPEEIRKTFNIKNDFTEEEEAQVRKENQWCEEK
UniProt Q13263: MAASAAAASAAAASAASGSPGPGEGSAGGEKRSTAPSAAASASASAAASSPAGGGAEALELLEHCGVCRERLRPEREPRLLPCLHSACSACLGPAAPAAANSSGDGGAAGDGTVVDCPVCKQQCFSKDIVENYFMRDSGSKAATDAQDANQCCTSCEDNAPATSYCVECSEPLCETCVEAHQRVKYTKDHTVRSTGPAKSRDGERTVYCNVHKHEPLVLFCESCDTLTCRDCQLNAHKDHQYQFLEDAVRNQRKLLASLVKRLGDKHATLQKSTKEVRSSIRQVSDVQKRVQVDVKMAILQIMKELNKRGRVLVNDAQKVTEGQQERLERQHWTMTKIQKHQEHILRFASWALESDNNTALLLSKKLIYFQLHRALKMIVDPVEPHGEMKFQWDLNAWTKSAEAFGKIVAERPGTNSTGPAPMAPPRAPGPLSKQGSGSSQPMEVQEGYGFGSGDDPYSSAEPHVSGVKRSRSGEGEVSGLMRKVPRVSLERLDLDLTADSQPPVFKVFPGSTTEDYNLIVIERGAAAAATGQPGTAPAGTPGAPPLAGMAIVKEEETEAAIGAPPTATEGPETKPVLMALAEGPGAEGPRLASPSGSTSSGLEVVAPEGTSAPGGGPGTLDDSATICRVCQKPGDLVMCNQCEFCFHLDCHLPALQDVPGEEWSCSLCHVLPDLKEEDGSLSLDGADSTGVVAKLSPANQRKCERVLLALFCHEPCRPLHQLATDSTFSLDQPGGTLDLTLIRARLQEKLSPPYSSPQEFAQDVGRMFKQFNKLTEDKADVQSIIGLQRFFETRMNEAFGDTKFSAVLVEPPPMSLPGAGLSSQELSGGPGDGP

How the values were obtained:
[1] = target: T1, HA-FLAG-tagged Cyclin-F (wild type), in SH-SY5Y cells (UniProt P41002); experiment: co-IP; lysates of parental (mock), HA-FLAG-FBXO28 or HA-FLAG-CCNF overexpressing SH-SY5Y cells; HA or Flag immunoprecipitation overnight at 4 C, SDS-PAGE and immunoblotting of endogenous partners
T1 sequence: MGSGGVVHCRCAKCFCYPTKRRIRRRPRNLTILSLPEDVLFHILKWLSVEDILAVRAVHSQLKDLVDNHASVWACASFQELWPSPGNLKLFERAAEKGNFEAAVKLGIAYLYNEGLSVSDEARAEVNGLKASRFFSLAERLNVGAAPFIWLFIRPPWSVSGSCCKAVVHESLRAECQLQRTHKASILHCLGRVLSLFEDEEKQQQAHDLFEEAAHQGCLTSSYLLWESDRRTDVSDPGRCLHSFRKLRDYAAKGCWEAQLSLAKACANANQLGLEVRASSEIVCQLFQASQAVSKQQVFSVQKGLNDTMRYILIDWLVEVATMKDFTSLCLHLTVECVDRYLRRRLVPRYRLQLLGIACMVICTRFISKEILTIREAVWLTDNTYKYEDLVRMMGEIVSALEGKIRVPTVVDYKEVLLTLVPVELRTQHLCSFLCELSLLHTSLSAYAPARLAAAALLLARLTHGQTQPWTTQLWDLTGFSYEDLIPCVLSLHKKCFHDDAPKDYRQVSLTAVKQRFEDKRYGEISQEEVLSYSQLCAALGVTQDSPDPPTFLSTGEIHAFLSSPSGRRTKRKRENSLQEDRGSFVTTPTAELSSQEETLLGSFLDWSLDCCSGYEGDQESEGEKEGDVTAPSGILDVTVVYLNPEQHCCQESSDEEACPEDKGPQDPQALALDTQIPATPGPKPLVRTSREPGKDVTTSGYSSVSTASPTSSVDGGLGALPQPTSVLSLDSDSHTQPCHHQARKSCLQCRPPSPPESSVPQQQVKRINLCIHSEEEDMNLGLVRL

[2] = target: T1, HA-FLAG-tagged Cyclin-F (wild type), in SH-SY5Y cells; experiment: co-IP; CCNF KO SH-SY5Y cells re-expressing HA-FLAG-CCNF WT, V335M or D628V or mock; HA-agarose, SDS-PAGE and immunoblotting
[3] = target: T2, HA-FLAG-tagged Cyclin-F V335M (UniProt P41002); experiment: as above
T2 sequence: T1 sequence with V335M

[4] = target: T3, HA-FLAG-tagged Cyclin-F D628V (UniProt P41002); experiment: as above
T3 sequence: T1 sequence with D628V

HA-FLAG-FBXO28 = target: T4, HA-FLAG-FBXO28 (UniProt Q9NVF7); experiment: co-IP; lysates of parental (mock), HA-FLAG-FBXO28 or HA-FLAG-CCNF overexpressing SH-SY5Y cells; HA or Flag immunoprecipitation overnight at 4 C, SDS-PAGE and immunoblotting of endogenous partners
T4 sequence: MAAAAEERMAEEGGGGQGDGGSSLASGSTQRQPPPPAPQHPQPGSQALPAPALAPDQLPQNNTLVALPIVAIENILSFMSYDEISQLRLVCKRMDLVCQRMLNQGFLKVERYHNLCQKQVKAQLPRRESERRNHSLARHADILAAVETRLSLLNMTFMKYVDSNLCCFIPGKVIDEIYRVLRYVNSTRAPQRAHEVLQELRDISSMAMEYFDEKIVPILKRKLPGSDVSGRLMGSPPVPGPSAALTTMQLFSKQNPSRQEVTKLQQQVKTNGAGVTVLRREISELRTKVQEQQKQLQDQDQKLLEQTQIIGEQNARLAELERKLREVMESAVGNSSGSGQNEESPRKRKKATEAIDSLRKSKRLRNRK

| binding [1] | binding [2] | binding [3] | binding [4] | binding (HA-FLAG-FBXO28) | Substance |
| --- | --- | --- | --- | --- | --- |
| binds | binds | binds | binds |  | HSP90AB1 (endogenous) (from UniProt P08238 1-724) |
| binds |  |  |  | binds | SKP1 (endogenous) (from UniProt P63208 1-163) |
| binds |  |  |  |  | STIP1 (endogenous) (from UniProt P31948 1-543) |
| binds |  |  |  |  | TRIM28 (endogenous) (from UniProt Q13263 1-835) |
